± gives the standard deviation of the averaged measurements. This data set is noisy: repeats of one test often differ as much as different tests do.
How the values were obtained:
XL888 [1] = compound: T1, CC[C@@H](C)Nc1cc(C(=O)N[C@H]2C[C@H]3CC[C@@H](C2)N3c2ccc(C(=O)C3CC3)cn2)c(C)cc1C(N)=O [XL888]; test: phosphopeptide melting temperature shift (XL888 minus DMSO); higher = stabilised by drug treatment; settings: 100 µM; treatment time 2 h; layout: intact cells; SK-Mel 28
Method: (§1)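 Phospho-TPP in intact SK-Mel 28 cells treated with 100 uM XL888 or DMSO for 2 h, heated at 10 temperatures (37-67 C) for 3 min, soluble fraction TMT10plex-labelled and TiO2 phospho-enriched. Melting curves were fitted per phosphopeptide; the value is the melting point difference (drug minus vehicle) in each of two biological replicates.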

The chains behind the UniProt entries cited, without tags or fusion partners. Where a name states a change or a piece, a line headed by the entry shows the natural chain unless it says otherwise.
UniProt Q15019: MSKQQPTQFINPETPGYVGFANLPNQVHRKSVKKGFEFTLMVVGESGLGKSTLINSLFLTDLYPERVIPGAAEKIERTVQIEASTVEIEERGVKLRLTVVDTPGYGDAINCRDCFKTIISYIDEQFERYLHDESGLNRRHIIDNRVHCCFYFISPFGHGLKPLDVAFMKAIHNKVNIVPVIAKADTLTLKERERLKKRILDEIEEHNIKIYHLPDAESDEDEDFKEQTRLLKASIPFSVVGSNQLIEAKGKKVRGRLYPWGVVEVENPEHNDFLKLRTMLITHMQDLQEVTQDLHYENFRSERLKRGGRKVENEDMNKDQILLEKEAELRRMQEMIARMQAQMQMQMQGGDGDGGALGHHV
UniProt Q15366, whole entry, looked up: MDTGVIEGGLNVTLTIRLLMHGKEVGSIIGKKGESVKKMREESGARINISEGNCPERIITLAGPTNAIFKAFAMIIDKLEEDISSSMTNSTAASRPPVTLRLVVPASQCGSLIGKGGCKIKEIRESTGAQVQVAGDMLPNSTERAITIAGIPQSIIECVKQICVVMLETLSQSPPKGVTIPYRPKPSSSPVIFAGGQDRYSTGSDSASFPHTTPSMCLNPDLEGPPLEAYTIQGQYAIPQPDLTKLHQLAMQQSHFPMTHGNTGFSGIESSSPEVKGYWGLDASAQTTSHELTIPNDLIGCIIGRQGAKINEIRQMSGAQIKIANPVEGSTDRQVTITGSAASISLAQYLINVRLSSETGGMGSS
UniProt Q15418, whole entry, looked up: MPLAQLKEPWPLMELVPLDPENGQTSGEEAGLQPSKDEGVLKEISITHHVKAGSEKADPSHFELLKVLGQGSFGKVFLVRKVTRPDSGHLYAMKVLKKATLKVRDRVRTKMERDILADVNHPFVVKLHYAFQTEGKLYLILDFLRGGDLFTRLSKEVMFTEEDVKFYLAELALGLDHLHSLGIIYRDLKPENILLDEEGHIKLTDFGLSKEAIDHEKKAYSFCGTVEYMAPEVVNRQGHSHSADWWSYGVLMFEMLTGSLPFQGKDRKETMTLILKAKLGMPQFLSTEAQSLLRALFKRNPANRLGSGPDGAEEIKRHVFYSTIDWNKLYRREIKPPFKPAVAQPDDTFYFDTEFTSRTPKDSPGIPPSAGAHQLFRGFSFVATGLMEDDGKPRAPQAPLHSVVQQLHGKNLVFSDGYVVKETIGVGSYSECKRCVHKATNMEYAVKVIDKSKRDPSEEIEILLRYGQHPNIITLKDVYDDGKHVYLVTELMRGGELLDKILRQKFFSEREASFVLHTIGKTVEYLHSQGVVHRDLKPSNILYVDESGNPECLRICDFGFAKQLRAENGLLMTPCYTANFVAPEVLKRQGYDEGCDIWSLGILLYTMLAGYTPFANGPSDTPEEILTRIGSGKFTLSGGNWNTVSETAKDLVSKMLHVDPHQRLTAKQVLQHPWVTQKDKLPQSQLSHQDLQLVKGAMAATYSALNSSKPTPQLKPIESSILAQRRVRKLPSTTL
UniProt Q92538, whole entry, looked up: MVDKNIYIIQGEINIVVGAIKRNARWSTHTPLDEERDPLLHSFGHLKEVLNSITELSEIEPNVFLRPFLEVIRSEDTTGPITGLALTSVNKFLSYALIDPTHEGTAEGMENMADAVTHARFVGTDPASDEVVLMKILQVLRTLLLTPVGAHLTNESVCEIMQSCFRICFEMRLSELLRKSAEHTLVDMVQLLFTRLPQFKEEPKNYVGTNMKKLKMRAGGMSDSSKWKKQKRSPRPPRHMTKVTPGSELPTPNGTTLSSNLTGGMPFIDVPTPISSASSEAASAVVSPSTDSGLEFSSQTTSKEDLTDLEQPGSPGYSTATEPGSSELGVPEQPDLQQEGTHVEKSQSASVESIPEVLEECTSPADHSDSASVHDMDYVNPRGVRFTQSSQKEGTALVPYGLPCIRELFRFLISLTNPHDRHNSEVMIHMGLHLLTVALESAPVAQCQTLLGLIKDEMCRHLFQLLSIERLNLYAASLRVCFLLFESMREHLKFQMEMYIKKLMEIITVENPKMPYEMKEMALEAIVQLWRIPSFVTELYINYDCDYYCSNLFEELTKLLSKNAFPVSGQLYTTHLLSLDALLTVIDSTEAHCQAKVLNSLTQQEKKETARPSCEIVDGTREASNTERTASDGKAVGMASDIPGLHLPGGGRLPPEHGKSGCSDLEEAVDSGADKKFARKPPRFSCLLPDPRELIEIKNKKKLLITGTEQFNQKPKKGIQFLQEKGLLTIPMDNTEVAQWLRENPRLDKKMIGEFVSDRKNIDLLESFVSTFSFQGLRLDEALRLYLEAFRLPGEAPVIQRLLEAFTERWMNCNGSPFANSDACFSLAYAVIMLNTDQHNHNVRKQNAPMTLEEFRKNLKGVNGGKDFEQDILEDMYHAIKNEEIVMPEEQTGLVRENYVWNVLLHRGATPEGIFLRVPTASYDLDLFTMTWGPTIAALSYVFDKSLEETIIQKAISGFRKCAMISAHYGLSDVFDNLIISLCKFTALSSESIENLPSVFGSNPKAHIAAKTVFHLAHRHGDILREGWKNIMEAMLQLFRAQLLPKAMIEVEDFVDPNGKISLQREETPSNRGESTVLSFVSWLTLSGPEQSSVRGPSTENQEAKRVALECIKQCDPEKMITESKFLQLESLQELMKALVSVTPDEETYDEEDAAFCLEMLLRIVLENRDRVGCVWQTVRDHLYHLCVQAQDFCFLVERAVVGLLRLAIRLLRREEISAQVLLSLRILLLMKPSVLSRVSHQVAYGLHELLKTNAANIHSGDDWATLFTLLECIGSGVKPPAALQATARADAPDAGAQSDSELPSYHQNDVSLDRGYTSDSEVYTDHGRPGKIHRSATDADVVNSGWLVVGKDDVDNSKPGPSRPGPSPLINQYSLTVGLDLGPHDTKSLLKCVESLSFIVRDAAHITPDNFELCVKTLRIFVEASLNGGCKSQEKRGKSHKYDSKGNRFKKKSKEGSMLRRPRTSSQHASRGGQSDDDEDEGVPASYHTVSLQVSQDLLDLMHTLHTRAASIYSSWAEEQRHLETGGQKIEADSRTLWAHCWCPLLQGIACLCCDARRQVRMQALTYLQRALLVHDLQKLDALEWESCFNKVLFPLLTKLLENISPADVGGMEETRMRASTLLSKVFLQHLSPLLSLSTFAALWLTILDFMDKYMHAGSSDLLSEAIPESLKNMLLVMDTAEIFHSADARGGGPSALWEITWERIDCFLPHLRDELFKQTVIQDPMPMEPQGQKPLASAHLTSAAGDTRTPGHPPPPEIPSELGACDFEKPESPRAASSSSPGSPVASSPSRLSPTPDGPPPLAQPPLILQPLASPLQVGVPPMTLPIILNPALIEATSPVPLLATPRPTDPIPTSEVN
UniProt Q99613, whole entry, looked up: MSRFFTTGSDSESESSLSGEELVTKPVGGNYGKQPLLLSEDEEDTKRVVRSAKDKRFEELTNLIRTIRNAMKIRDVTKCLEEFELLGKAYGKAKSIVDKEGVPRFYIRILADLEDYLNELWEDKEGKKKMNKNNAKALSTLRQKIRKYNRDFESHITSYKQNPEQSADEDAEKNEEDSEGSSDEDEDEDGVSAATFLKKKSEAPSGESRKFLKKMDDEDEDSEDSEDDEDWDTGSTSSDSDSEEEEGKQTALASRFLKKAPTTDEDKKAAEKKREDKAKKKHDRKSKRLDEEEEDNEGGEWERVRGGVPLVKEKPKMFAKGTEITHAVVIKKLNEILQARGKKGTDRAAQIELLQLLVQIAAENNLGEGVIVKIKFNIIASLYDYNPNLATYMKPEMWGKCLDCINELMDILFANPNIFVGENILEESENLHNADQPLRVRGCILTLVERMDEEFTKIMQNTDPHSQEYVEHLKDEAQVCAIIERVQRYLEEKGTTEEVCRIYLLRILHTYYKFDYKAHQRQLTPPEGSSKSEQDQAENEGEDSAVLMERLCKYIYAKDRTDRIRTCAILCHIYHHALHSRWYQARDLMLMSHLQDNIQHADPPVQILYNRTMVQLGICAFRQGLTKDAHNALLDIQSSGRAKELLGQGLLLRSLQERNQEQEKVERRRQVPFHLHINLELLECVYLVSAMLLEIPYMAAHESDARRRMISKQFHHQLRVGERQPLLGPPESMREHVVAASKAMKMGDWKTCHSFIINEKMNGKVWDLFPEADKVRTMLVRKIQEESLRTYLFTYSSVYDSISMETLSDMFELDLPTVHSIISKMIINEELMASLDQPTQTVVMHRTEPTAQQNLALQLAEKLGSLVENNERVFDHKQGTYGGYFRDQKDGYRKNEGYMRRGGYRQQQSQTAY
UniProt Q9NW82: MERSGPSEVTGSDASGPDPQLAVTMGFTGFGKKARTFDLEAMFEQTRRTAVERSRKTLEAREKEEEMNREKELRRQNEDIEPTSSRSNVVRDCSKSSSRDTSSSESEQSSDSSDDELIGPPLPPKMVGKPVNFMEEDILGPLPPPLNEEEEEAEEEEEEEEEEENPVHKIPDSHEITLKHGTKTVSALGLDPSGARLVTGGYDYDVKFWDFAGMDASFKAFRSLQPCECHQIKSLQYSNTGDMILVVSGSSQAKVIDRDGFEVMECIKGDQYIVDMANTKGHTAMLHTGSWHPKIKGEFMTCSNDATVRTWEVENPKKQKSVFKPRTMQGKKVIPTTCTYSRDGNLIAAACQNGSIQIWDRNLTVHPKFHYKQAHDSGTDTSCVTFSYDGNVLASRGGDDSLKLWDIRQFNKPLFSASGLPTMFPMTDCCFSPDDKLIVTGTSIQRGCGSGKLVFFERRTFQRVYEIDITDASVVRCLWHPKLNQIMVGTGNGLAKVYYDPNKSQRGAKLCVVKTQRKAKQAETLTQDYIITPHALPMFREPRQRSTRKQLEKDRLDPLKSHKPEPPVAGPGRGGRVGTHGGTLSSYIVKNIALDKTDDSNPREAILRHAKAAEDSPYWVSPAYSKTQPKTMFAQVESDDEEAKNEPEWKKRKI
UniProt P18887, whole entry, looked up: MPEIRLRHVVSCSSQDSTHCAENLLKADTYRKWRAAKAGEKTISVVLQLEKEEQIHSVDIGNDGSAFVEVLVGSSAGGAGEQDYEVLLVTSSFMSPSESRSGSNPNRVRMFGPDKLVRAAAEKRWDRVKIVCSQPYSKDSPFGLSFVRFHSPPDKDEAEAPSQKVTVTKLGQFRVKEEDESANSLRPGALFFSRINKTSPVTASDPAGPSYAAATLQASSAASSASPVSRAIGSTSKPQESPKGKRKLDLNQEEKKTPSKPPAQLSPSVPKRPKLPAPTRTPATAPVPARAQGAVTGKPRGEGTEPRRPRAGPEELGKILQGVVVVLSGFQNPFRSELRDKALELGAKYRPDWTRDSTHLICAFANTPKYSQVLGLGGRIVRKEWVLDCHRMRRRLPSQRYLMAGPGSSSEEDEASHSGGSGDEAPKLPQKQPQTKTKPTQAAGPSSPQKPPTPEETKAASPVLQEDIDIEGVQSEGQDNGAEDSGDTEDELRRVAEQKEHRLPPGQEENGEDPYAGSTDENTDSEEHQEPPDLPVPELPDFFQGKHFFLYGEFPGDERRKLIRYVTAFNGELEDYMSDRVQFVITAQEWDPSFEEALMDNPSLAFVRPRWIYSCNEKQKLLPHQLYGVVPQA
UniProt Q6NZY4: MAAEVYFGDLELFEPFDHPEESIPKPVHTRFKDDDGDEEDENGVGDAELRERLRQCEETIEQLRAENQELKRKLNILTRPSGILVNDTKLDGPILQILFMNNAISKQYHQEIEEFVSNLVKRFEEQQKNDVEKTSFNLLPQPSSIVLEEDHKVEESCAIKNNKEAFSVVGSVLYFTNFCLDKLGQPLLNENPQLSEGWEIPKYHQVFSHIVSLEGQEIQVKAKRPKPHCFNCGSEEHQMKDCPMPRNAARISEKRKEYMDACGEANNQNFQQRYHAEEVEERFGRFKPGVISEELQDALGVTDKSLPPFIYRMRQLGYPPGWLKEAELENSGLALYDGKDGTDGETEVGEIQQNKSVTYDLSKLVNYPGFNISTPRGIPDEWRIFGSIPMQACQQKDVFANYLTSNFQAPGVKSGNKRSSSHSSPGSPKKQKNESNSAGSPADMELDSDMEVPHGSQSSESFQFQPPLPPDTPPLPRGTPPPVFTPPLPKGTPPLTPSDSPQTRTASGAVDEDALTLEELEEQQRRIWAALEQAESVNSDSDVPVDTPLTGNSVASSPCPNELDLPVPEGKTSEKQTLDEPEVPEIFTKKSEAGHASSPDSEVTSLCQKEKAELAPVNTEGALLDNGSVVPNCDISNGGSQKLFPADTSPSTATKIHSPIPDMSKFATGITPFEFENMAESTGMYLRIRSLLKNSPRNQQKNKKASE
UniProt Q8NHG8: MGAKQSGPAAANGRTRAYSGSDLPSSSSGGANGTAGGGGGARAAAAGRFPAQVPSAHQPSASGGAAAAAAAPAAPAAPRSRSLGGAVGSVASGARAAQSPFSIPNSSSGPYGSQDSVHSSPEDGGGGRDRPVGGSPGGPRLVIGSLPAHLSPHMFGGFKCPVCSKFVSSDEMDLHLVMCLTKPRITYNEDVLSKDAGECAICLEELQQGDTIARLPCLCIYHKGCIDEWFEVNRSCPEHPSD

XL888 [2] = compound: T1, XL888; test: as above; settings: 100 µM; treatment time 2 h; layout: intact cells; SK-Mel 24
Method: as §1, with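 “24” for “28”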

With “UniProt Q04637-6_phosphosite_1035 (phosphosite position: 1035)” the “phosphopeptide melting temperature shift” value (XL888 [1]) was 0.384 ± 0.32 °C and the “phosphopeptide melting temperature shift” value (XL888 [2]) was 1.283 ± 0.0026 °C.

With “UniProt Q05209-2_phosphosite_305 (phosphosite position: 305)” the “phosphopeptide melting temperature shift” value (XL888 [1]) was 0.837 ± 0.49 °C and the “phosphopeptide melting temperature shift” value (XL888 [2]) was 0.161 °C.

For “UniProt Q05519-2_phosphosite_448 (phosphosite position: 448)”, the “phosphopeptide melting temperature shift” value (XL888 [1]) was 3.08 ± 1.6 °C and the “phosphopeptide melting temperature shift” value (XL888 [2]) was 0.491 ± 0.77 °C.

For “UniProt Q07666-2_phosphosite_20 (phosphosite position: 20)”, the “phosphopeptide melting temperature shift” value (XL888 [1]) was 4.23 ± 0.16 °C and the “phosphopeptide melting temperature shift” value (XL888 [2]) was 1.13 °C.

For “UniProt Q07866-6_phosphosite_591 (phosphosite position: 591)”, the “phosphopeptide melting temperature shift” value (XL888 [1]) was -0.162 ± 0.67 °C and the “phosphopeptide melting temperature shift” value (XL888 [2]) was -0.543 ± 0.3 °C.

For “UniProt Q07866-6_phosphosite_622 (phosphosite position: 622)”, the “phosphopeptide melting temperature shift” value (XL888 [1]) was -1.31 °C and the “phosphopeptide melting temperature shift” value (XL888 [2]) was 0.108 °C.

In the case of “UniProt Q12802-4_phosphosite_1584 (phosphosite position: 1584)”, the “phosphopeptide melting temperature shift” value (XL888 [1]) is reported as 0.514 ± 0.14 °C and the “phosphopeptide melting temperature shift” value (XL888 [2]) is reported as -1.42 °C.

In the case of “UniProt Q13045-2_phosphosite_381 (phosphosite position: 381)”, the “phosphopeptide melting temperature shift” value (XL888 [1]) is reported as 0.367 ± 0.5 °C and the “phosphopeptide melting temperature shift” value (XL888 [2]) is reported as -0.57 °C.

“UniProt Q13428-6_phosphosite_1312 (phosphosite position: 1312)” was tested, and the “phosphopeptide melting temperature shift” value (XL888 [1]) was -1.1 °C and the “phosphopeptide melting temperature shift” value (XL888 [2]) was -1.32 ± 0.1 °C.

With “UniProt Q13428-6_phosphosite_1340 (phosphosite position: 1340)” the “phosphopeptide melting temperature shift” value (XL888 [1]) was -0.328 °C and the “phosphopeptide melting temperature shift” value (XL888 [2]) was -0.904 °C.

For “UniProt Q13459-2_phosphosite_1992 (phosphosite position: 1992)”, the “phosphopeptide melting temperature shift” value (XL888 [1]) was -1.74 °C and the “phosphopeptide melting temperature shift” value (XL888 [2]) was 0.195 °C.

In the case of “UniProt Q14155-1_phosphosite_340 (phosphosite position: 340)”, the “phosphopeptide melting temperature shift” value (XL888 [1]) is reported as 0.241 °C and the “phosphopeptide melting temperature shift” value (XL888 [2]) is reported as -1.46 °C.

With “UniProt Q14155-1_phosphosite_516 (phosphosite position: 516)” the “phosphopeptide melting temperature shift” value (XL888 [1]) was -0.14 ± 0.39 °C and the “phosphopeptide melting temperature shift” value (XL888 [2]) was -0.518 °C.

For “UniProt Q14498-2_phosphosite_136 (phosphosite position: 136)”, the “phosphopeptide melting temperature shift” value (XL888 [1]) was 1.32 ± 0.34 °C and the “phosphopeptide melting temperature shift” value (XL888 [2]) was 0.456 ± 0.61 °C.

In the case of “UniProt Q14676-3_phosphosite_168 (phosphosite position: 168)”, the “phosphopeptide melting temperature shift” value (XL888 [1]) is reported as 0.44 ± 0.14 °C and the “phosphopeptide melting temperature shift” value (XL888 [2]) is reported as -0.442 °C.

For “UniProt Q14677-2_phosphosite_281 (phosphosite position: 281)”, the “phosphopeptide melting temperature shift” value (XL888 [1]) was 1.08 ± 0.12 °C and the “phosphopeptide melting temperature shift” value (XL888 [2]) was 2.02 °C.

In the case of “UniProt Q14814-6_phosphosite_391 (phosphosite position: 391)”, the “phosphopeptide melting temperature shift” value (XL888 [1]) is reported as 0.872 °C and the “phosphopeptide melting temperature shift” value (XL888 [2]) is reported as 1.22 °C.

“UniProt Q15019_phosphosite_218 (phosphosite position: 218)” was tested, and the “phosphopeptide melting temperature shift” value (XL888 [1]) was 0.663 ± 0.61 °C and the “phosphopeptide melting temperature shift” value (XL888 [2]) was 0.506 ± 0.28 °C.

With “UniProt Q15036-2_phosphosite_384 (phosphosite position: 384)” the “phosphopeptide melting temperature shift” value (XL888 [1]) was -0.175 ± 0.51 °C and the “phosphopeptide melting temperature shift” value (XL888 [2]) was -0.535 °C.

“UniProt Q15084-3_phosphosite_425 (phosphosite position: 425)” was tested, and the “phosphopeptide melting temperature shift” value (XL888 [1]) was 0.342 ± 0.29 °C and the “phosphopeptide melting temperature shift” value (XL888 [2]) was -1.14 °C.

In the case of “UniProt Q15149-4_phosphosite_21 (phosphosite position: 21)”, the “phosphopeptide melting temperature shift” value (XL888 [1]) is reported as -0.947 °C and the “phosphopeptide melting temperature shift” value (XL888 [2]) is reported as -0.826 °C.

With “UniProt Q15149_phosphosite_4386 (phosphosite position: 4386)” the “phosphopeptide melting temperature shift” value (XL888 [1]) was -0.179 ± 0.73 °C and the “phosphopeptide melting temperature shift” value (XL888 [2]) was 0.165 °C.

For “UniProt Q15366-2_phosphosite_189 (phosphosite position: 189)”, the “phosphopeptide melting temperature shift” value (XL888 [1]) was 3.04 °C and the “phosphopeptide melting temperature shift” value (XL888 [2]) was 1.84 °C.

In the case of “UniProt Q15418-3_phosphosite_271 (phosphosite position: 271)”, the “phosphopeptide melting temperature shift” value (XL888 [1]) is reported as 0.765 ± 0.64 °C and the “phosphopeptide melting temperature shift” value (XL888 [2]) is reported as 0.291 °C.

In the case of “UniProt Q15831-2_phosphosite_31 (phosphosite position: 31)”, the “phosphopeptide melting temperature shift” value (XL888 [1]) is reported as -0.588 °C and the “phosphopeptide melting temperature shift” value (XL888 [2]) is reported as -1.23 °C.

For “UniProt Q16637-4_phosphosite_28 (phosphosite position: 28)”, the “phosphopeptide melting temperature shift” value (XL888 [1]) was 1.57 ± 1.6 °C and the “phosphopeptide melting temperature shift” value (XL888 [2]) was 0.086 °C.

With “UniProt Q92466-3_phosphosite_26 (phosphosite position: 26)” the “phosphopeptide melting temperature shift” value (XL888 [1]) was -1.38 °C and the “phosphopeptide melting temperature shift” value (XL888 [2]) was -0.156 ± 0.36 °C.

“UniProt Q92538-3_phosphosite_1298 (phosphosite position: 1298)” was tested, and the “phosphopeptide melting temperature shift” value (XL888 [1]) was 2.55 ± 0.13 °C and the “phosphopeptide melting temperature shift” value (XL888 [2]) was 7.03 °C.

With “UniProt Q92538-3_phosphosite_1318 (phosphosite position: 1318)” the “phosphopeptide melting temperature shift” value (XL888 [1]) was 1.3 ± 1.9 °C and the “phosphopeptide melting temperature shift” value (XL888 [2]) was 1.3 ± 0.37 °C.

In the case of “UniProt Q92538-3_phosphosite_1337 (phosphosite position: 1337)”, the “phosphopeptide melting temperature shift” value (XL888 [1]) is reported as 0.0248 °C and the “phosphopeptide melting temperature shift” value (XL888 [2]) is reported as 1.47 °C.

With “UniProt Q92769-3_phosphosite_364 (phosphosite position: 364)” the “phosphopeptide melting temperature shift” value (XL888 [1]) was 0.845 ± 0.17 °C and the “phosphopeptide melting temperature shift” value (XL888 [2]) was 0.188 °C.

In the case of “UniProt Q92974-3_phosphosite_858 (phosphosite position: 858)”, the “phosphopeptide melting temperature shift” value (XL888 [1]) is reported as -1.03 ± 1.3 °C and the “phosphopeptide melting temperature shift” value (XL888 [2]) is reported as -1.08 °C.

For “UniProt Q99543-2_phosphosite_47 (phosphosite position: 47)”, the “phosphopeptide melting temperature shift” value (XL888 [1]) was -1.87 ± 1.7 °C and the “phosphopeptide melting temperature shift” value (XL888 [2]) was 0.239 °C.

With “UniProt Q99613-2_phosphosite_39 (phosphosite position: 39)” the “phosphopeptide melting temperature shift” value (XL888 [1]) was -1.4 °C and the “phosphopeptide melting temperature shift” value (XL888 [2]) was 0.000891 ± 0.21 °C.

In the case of “UniProt Q99613-2_phosphosite_156 (phosphosite position: 156)”, the “phosphopeptide melting temperature shift” value (XL888 [1]) is reported as 2.81 °C and the “phosphopeptide melting temperature shift” value (XL888 [2]) is reported as 0.727 °C.

For “UniProt Q99719-2_phosphosite_234 (phosphosite position: 234)”, the “phosphopeptide melting temperature shift” value (XL888 [1]) was -0.801 ± 1.2 °C and the “phosphopeptide melting temperature shift” value (XL888 [2]) was 1.44 °C.

For “WDR55 phosphosite_14 (phosphosite position: 14) (UniProt Q9H6Y2)”, the “phosphopeptide melting temperature shift” value (XL888 [1]) was 1.79 °C and the “phosphopeptide melting temperature shift” value (XL888 [2]) was -1.7 °C.

For “WDR70 phosphosite_638 (phosphosite position: 638) (UniProt Q9NW82)”, the “phosphopeptide melting temperature shift” value (XL888 [1]) was -0.000965 °C and the “phosphopeptide melting temperature shift” value (XL888 [2]) was 0.341 °C.

With “WDR77 phosphosite_5 (phosphosite position: 5) (UniProt Q9BQA1)” the “phosphopeptide melting temperature shift” value (XL888 [1]) was 1.72 °C and the “phosphopeptide melting temperature shift” value (XL888 [2]) was -0.303 °C.

“XRCC1 phosphosite_447 (phosphosite position: 447) (UniProt P18887)” was tested, and the “phosphopeptide melting temperature shift” value (XL888 [1]) was 0.298 ± 0.27 °C and the “phosphopeptide melting temperature shift” value (XL888 [2]) was 0.16 °C.

For “ZCCHC8 phosphosite_427 (phosphosite position: 427) (UniProt Q6NZY4)”, the “phosphopeptide melting temperature shift” value (XL888 [1]) was 0.473 ± 1.6 °C and the “phosphopeptide melting temperature shift” value (XL888 [2]) was 0.0318 °C.

With “ZNRF2 phosphosite_135 (phosphosite position: 135) (UniProt Q8NHG8)” the “phosphopeptide melting temperature shift” value (XL888 [1]) was 0.362 °C and the “phosphopeptide melting temperature shift” value (XL888 [2]) was -0.922 °C.

— the supplement of paper PMC5836539
